In patent US20080012929A1, “AZO DYE, HEAT-SENSITIVE TRANSFER RECORDING INK SHEET, HEAT-SENSITIVE TRANSFER RECORDING METHOD, COLOR TONER, INKJET INK AND COLOR FILTER” (FUJIFILM Corporation, priority 2006, published 2008) one finds Transferring property data, which are given here for 6 compounds.

Some entries repeat one wording, which the source may state once for all of them.

The data set is described as follows: Heat-sensitive transfer recording: Status A reflection density at solid density portion of the image. To be noted: solid density (100% dot density), thermal head 0.25 W/dot. The source says:
The thus-obtained ink sheet 1 and image-receiving material were superposed so that the dye-providing layer in the ink sheet and the image-receiving layer in the image-receiving material were contacted with each other. For printing, a thermal head was used from the back side of the dye-providing material under the following conditions:
Output of the thermal head: 0.25 W/dot; Pulse interval: 0.15 milliseconds to 15 milliseconds; and dot density: 6 dots/mm. Then, the image-receiving layer of the image-receiving material was image-wise colored by the yellow dye. […] Image recordings were conducted in the same manner as the above-described image recording, except that ink sheet 1 was replaced by ink sheets 2 to 14, respectively.
Status A reflection densities were measured in the portion indicating a solid density (100% dot density) of each of the obtained images, and evaluated according to the following three grades: • A (very good): reflection density of 1.8 or more • B (good): reflection density of 1.6 or more but less than 1.8 • C (probably acceptable): reflection density of 1.0 or more but less than 1.6
`CCCCCn1nc(C(C)(C)C)c(N=Nc2ccc([N+](=O)[O-])cc2)c1N` [(5)]: the Transferring property result is “A (A (very good): reflection density of 1.8 or more)”.

For the compound `CC(C)Cn1nc(C(C)(C)C)c(N=Nc2ccc([N+](=O)[O-])cc2)c1N` [(7)], the Transferring property result is “B (B (good): reflection density of 1.6 or more but less than 1.8)”.

As to `CCC(C)n1nc(C(C)(C)C)c(N=Nc2ccc([N+](=O)[O-])cc2)c1N` (stereo not drawn) [(8)], the Transferring property result is reported as “B (B (good): reflection density of 1.6 or more but less than 1.8)”.

As to `CC(C)CCn1nc(C(C)(C)C)c(N=Nc2ccc([N+](=O)[O-])cc2)c1N` [(9)], the Transferring property entry was “B (B (good): reflection density of 1.6 or more but less than 1.8)”.

Consider `CCN(CCOc1ccc(C2CCCCC2)cc1)c1ccc(C=C(C#N)C#N)c(C)c1` [Dye for Comparison 2, reference compound], for which the Transferring property entry is “A (A (very good): reflection density of 1.8 or more)”.

As to `CCCCN(CCCC)C(=O)c1ccc2c(c1)C(=O)C(c1nc3ccc(C(C)C)cc3cc1O)C2=O` (stereo not drawn) [Dye for Comparison 3, reference compound], the Transferring property result was “C (C (probably acceptable): reflection density of 1.0 or more but less than 1.6)”.
